This is one part of the list.

Amino acid sequences for entries named in this document (tags omitted).
UniProt Q0JBA9, entry or part of it: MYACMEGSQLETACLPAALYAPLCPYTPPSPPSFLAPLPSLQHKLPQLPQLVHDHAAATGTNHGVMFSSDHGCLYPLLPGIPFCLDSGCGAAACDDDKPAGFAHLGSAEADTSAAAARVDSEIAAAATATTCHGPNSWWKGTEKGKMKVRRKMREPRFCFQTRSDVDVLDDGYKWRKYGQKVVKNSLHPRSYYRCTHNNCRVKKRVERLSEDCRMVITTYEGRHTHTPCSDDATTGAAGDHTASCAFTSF

In this test the target is OsWRKY34 (Oryza sativa, UniProt Q0JBA9 1-250). The experiment in a line: protein-binding microarray (RPBM); PBS, 2% BSA, 51.3 ng/ul salmon testes DNA, 50 uM zinc acetate, 200 nM TF, 25 C, 1 h; high values mean tight binding. The settings on record: protein: recombinant; tags: N-terminal polyhistidine and DsRed monomer fusion (pET32a); label: CyDye5-dUTP incorporated in the synthesized complementary strand; 3' TTTTT single-stranded linker to array surface; dsDNA, one strand shown. Summed up: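 Polyhistidine-tagged DsRed fusions of transcription factors, joined at the N-terminus, were expressed in E. coli BL21-CodonPlus and isolated on Ni–NTA. They were incubated at 200 nM for 1 h at 25 °C on a custom Agilent array, double-stranded and BSA-blocked, in PBS with 2% BSA, salmon testes DNA and 50 µM zinc acetate. The binding signal is per-feature fluorescence intensity (arbitrary units) read on an Axon 4000B scanner after washing.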
As for “AAGCCACAACATGCGCCACAAGCAGCTGCACCCAGTTTTCCGGAGTCACCTAGTGCAG”, the binding signal was 9580 fluorescence intensity (a.u.).
For “ATTGCATCGCCCATTTCGCTCATGGATCAGTAGGTAGCCACGGAGTCACCTAGTGCAG”, the binding signal was 8190 fluorescence intensity (a.u.).
As to “GCCAAGGTTAGGTAGGATGGTAGAAGTTGATTTTTTATGGCGGAGTCACCTAGTGCAG”, the binding signal was 8740 fluorescence intensity (a.u.).
“TAAAGCAATGCACTAATGTTGTTTTCCACGTCCATCCGGCCGGAGTCACCTAGTGCAG”: the binding signal was 8520 fluorescence intensity (a.u.).
Consider “GTACCTGAATGAGCGGTACTTGTTTGTTTCTTTTTTATCACGGAGTCACCTAGTGCAG”, for which the binding signal was 8190 fluorescence intensity (a.u.).
Consider “GAGCATCCATTGCTTTTGTTGGTACGTTTCTCAAGTTAACCGGAGTCACCTAGTGCAG”, for which the binding signal is 8730 fluorescence intensity (a.u.).
For the sequence “ATTCTGCTCGTTCGGTCGTTTTCTTGCGTCCTCGTCGTGTCGGAGTCACCTAGTGCAG”, the binding signal was 8320 fluorescence intensity (a.u.).
Consider “TTCGAACGACTCGGCGCTCCATTCTGCCCACCGGCGGTGACGGAGTCACCTAGTGCAG”, for which the binding signal is 10200 fluorescence intensity (a.u.).
In the case of “GCTTCCCTTCCCCGCTGCCGCCGCCGCTTTCGGAGTTACACGGAGTCACCTAGTGCAG” it was 8360 fluorescence intensity (a.u.).
Consider “AAGGGTAATTGTACGTGTGTTGTGAGTATCTATGTTTGTACGGAGTCACCTAGTGCAG”, for which the binding signal was 10400 fluorescence intensity (a.u.).
“TCGTGCTACAGATCTATAGCACACTACTCTTCTCTCTCTTCGGAGTCACCTAGTGCAG”: the binding signal is 9200 fluorescence intensity (a.u.).
For “GCGCGCCGGCGCTTCTCCCCTTCCCGGGCCTCTTCAAAAACGGAGTCACCTAGTGCAG”, the binding signal is 8390 fluorescence intensity (a.u.).
With “ATATTTCTATGATTCTATCCCCTCCAGATTTATCGGCGCCCGGAGTCACCTAGTGCAG”, the binding signal was 8310 fluorescence intensity (a.u.).
For “CTTCAACATCATCTCCGGTGAGCATTCCATTCCATTCCATCGGAGTCACCTAGTGCAG”, the binding signal is 10200 fluorescence intensity (a.u.).
Take “GAAACGGAGTAAGTATTAGTTTATAGCTTTCATATTTTTTCGGAGTCACCTAGTGCAG”: the binding signal was 8100 fluorescence intensity (a.u.).
In the case of “CTTTTCTTGTTGTCGCTCTTCTCTACATGCGTATGTAATACGGAGTCACCTAGTGCAG” it was 8050 fluorescence intensity (a.u.); in that of “TTGCCTCTATTGTTTTCCAGACTGGCTGCTTCTGTAACCCCGGAGTCACCTAGTGCAG”, 9770 fluorescence intensity (a.u.).
For the sequence “GCCGGAGCTCCTCCCTGCTCCCTCTACTGGGTTGGCGGGGCGGAGTCACCTAGTGCAG”, the binding signal was 8050 fluorescence intensity (a.u.).
In the case of “ATATTTTGGGACGGAGGTAATACTATCACATATCCGGATTCGGAGTCACCTAGTGCAG” it was 8710 fluorescence intensity (a.u.); in that of “GGTGTCAATAATCACGTCTCTTTTGATTTTTTATTATAGACGGAGTCACCTAGTGCAG”, 8340 fluorescence intensity (a.u.).
For the sequence “TTTCCACTTACCCATTCTACCATGCTCAGCATACCATTGACGGAGTCACCTAGTGCAG”, the binding signal is 8790 fluorescence intensity (a.u.).
Turning to “ATTCTCGCCTTCTCGCTCTCTCGTGGCTGGCCGTGGCGGGCGGAGTCACCTAGTGCAG”, the binding signal was 8680 fluorescence intensity (a.u.).
“GTGGGCCACCCACCCAACGACCGTTTCACGCATGGCGCACCGGAGTCACCTAGTGCAG”: the binding signal is 10700 fluorescence intensity (a.u.).
Consider “CATGGCGAGATTGTACTACTACCTTTCTCACTACACGCCACGGAGTCACCTAGTGCAG”, for which the binding signal is 9060 fluorescence intensity (a.u.).
Consider “GTATCAGAGCCACACTTTCCTGTAGGCTAAACATCTCTTGCGGAGTCACCTAGTGCAG”, for which the binding signal was 8250 fluorescence intensity (a.u.).
Regarding “TCCGTCCCATAATACAAGGGATTTTGACTTTTTGGTTGCGCGGAGTCACCTAGTGCAG”, the binding signal is 8960 fluorescence intensity (a.u.).
“CCACCATCCTTATCCTTATCTCCTCCACTCATTTCCTTCTCGGAGTCACCTAGTGCAG”: the binding signal is 15500 fluorescence intensity (a.u.).
Consider “AGGTATATGTGTGTATGACAGGTGAGACCAAGTATGAATTCGGAGTCACCTAGTGCAG”, for which the binding signal was 8970 fluorescence intensity (a.u.).
Regarding “CACCTGCGCCGACCTCCTCGCCGCCGTCTCCACCCTCTCCCGGAGTCACCTAGTGCAG”, the binding signal is 8180 fluorescence intensity (a.u.).
In the case of “CTTCTAATCCCATCTTTAGTGCATCTACTATCTCACCTTACGGAGTCACCTAGTGCAG”, the binding signal was 8930 fluorescence intensity (a.u.).
“TACCTTTTAAATTTATTCTGTGAGAGCACTTCAGTCCATTCGGAGTCACCTAGTGCAG”: the binding signal was 8310 fluorescence intensity (a.u.).
On to “GCTCGTCCACCGTCGCCTCCATCTCCCCTCGCCGCCGGCGCGGAGTCACCTAGTGCAG”, for which the binding signal is 8540 fluorescence intensity (a.u.).
With “CGTCCAACTCCAACTCATCCTGGCCGTCCATTCCCGATCACGGAGTCACCTAGTGCAG”, the binding signal was 14600 fluorescence intensity (a.u.).
In the case of “TTCCTATCTTGCAGGCTTTTCACTTTGAGCTCACGTAGAGCGGAGTCACCTAGTGCAG” it was 9020 fluorescence intensity (a.u.); in that of “CCTTTGTTTTTTCCCCTTTTCCTTGCCACTGCCTGTTAAACGGAGTCACCTAGTGCAG”, 8950 fluorescence intensity (a.u.); in that of “CGACGTGGTGTTCGACGAAGGGCGAGGGTGGGTATGGGACCGGAGTCACCTAGTGCAG”, 8110 fluorescence intensity (a.u.).
In the case of “ACCAGTCACCGGCCCAGCCACACAACACAATACAGTCTGCCGGAGTCACCTAGTGCAG” it was 9570 fluorescence intensity (a.u.); in that of “CATCTGGCGCGTGCGCGCCCATTAGCATTTTCGGACTCTCCGGAGTCACCTAGTGCAG”, 8850 fluorescence intensity (a.u.).
For “GAGGAGGCTGCAGTCCTAACACGTGGCGCAATTTTTTCCCCGGAGTCACCTAGTGCAG”, the binding signal was 9960 fluorescence intensity (a.u.).
Turning to “ACGCGCCTGTCTCCTACACGGGGCCCCGGCCCCATCTGATCGGAGTCACCTAGTGCAG”, the binding signal is 11100 fluorescence intensity (a.u.).
Turning to “AACATTGAATTGGATCGTTGACTTGGACGAGTCATCGCCGCGGAGTCACCTAGTGCAG”, the binding signal was 13300 fluorescence intensity (a.u.).
For the sequence “GATTTAGATTCGCCTTTTTGCCCGTTCATTGTTTCAGTTACGGAGTCACCTAGTGCAG”, the binding signal is 12600 fluorescence intensity (a.u.).

The record behind these values is publication PMC7819943, “Rice protein-binding microarrays: a tool to detect cis-acting elements near promoter regions in rice”.
